Results are given in words; binding and its absence hold for the method and conditions named. For some assays here: In cells and extracts the contact can be indirect. Some entries that bind do so weakly or less than the wild type. Each block holds one molecule with its values, some of them ahead of it.
Columns and labels:
[1] = biological target: RNF126F, construct encoding only the first 100 residues of RNF126, expressed in cells (UniProt Q9BV68); test: co-IP
3xHA-tagged RNF126 = 3xHA-tagged RNF126 (UniProt Q9BV68); test: co-IP; epitope-tagged Bag6 and RNF126 constructs coexpressed in HEK293T; IP with anti-HA antibodies, immunoblot
recombinant Bag6 = recombinant Bag6 (UniProt P46379); test: maintenance of solubility on heating (centrifugation, SDS-PAGE, Coomassie); equimolar rBag6 (or ΔUbl-rBag6) and luciferase heated to 42°C for 20 min, aggregates removed by centrifugation (10 min, 20,000 x g); both purified
[2] = biological target: Bag6 (endogenous, cellular) (human (endogenous in HEK293T)) (UniProt P46379); test: co-IP
FLAG-tagged Bag6 = FLAG-tagged Bag6 (UniProt P46379)

The chains behind the UniProt entries cited, without tags or fusion partners. Where a name states a change or a piece, a line headed by the entry shows the natural chain unless it says otherwise. Residues count along the entry.
UniProt Q9BV68: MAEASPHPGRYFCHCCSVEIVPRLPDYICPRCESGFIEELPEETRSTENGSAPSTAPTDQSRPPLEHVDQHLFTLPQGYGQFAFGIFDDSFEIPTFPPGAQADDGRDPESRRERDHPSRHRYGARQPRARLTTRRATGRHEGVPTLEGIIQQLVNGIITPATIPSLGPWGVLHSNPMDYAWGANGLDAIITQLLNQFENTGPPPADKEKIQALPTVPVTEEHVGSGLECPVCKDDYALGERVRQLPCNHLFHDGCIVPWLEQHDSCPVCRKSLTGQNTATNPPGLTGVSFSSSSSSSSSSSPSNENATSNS
RNF126F, construct encoding only the first 100 residues of RNF126, expressed in cells: residues 1-100 of Q9BV68
UniProt P08659: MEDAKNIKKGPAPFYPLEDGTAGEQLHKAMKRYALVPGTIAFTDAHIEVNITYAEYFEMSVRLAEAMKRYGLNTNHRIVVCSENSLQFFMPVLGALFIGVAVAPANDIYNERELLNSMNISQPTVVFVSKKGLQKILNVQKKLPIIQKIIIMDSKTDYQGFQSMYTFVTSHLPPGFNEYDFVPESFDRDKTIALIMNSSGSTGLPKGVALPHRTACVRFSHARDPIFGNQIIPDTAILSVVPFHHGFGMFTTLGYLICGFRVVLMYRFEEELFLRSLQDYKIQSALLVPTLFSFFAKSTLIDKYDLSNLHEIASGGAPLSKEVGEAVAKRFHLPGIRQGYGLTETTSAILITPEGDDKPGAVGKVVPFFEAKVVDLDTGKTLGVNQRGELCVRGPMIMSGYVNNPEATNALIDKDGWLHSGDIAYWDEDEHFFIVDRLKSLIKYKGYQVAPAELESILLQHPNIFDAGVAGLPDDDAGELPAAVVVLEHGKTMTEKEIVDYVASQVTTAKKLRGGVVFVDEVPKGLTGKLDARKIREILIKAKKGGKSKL

binding [1]: binds
binding (3xHA-tagged RNF126): binds
Molecule: FLAG-tagged Bag6 (from UniProt P46379 1-1132)

binding (recombinant Bag6): binds
Molecule: Firefly luciferase (from UniProt P08659 1-550) (enzyme)

Molecule: Glycosylated wild-type PrP (from UniProt P04156 23-230)
binding [2]: no binding

binding (FLAG-tagged Bag6): binds
B1: RNF123 (enzyme, UniProt Q5XPI4 1-1314)
chain: MASKGAGMSFSRKSYRLTSDAEKSRVTGIVQEKLLNDYLNRIFSSSEHAPPAATSRKPLNFQNLPEHLDQLLQVDNEEEESQGQVEGRLGPSTVVLDHTGGFEGLLLVDDDLLGVIGHSNFGTIRSTTCVYKGKWLYEVLISSQGLMQIGWCTISCRFNQEEGVGDTHNSYAYDGNRVRKWNVTTTNYGKAWAAGDIVSCLIDLDDGTLSFCLNGVSLGTAFENLSRGLGMAYFPAISLSFKESVAFNFGSRPLRYPVAGYRPLQDPPSADLVRAQRLLGCFRAVLSVELDPVEGRLLDKESSKWRLRGQPTVLLTLAHIFHHFAPLLRKVYLVEAVLMSFLLGIVEKGTPTQAQSVVHQVLDLLWLFMEDYEVQDCLKQLMMSLLRLYRFSPIVPDLGLQIHYLRLTIAILRHEKSRKFLLSNVLFDVLRSVVFFYIKSPLRVEEAGLQELIPTTWWPHCSSREGKESTEMKEETAEERLRRRAYERGCQRLRKRIEVVEELQVQILKLLLDNKDDNGGEASRYIFLTKFRKFLQENASGRGNMPMLCPPEYMVCFLHRLISALRYYWDEYKASNPHASFSEEAYIPPQVFYNGKVDYFDLQRLGGLLSHLRKTLKDDLASKANIVIDPLELQSTAMDDLDEDEEPAPAMAQRPMQALAVGGPLPLPRPGWLSSPTLGRANRFLSTAAVSLMTPRRPLSTSEKVKVRTLSVEQRTREDIEGSHWNEGLLLGRPPEEPEQPLTENSLLEVLDGAVMMYNLSVHQQLGKMVGVSDDVNEYAMALRDTEDKLRRCPKRRKDILAELTKSQKVFSEKLDHLSRRLAWVHATVYSQEKMLDIYWLLRVCLRTIEHGDRTGSLFAFMPEFYLSVAINSYSALKNYFGPVHSMEELPGYEETLTRLAAILAKHFADARIVGTDIRDSLMQALASYVCYPHSLRAVERIPEEQRIAMVRNLLAPYEQRPWAQTNWILVRLWRGCGFGYRYTRLPHLLKTKLEDANLPSLQKPCPSTLLQQHMADLLQQGPDVAPSFLNSVLNQLNWAFSEFIGMIQEIQQAAERLERNFVDSRQLKVCATCFDLSVSLLRVLEMTITLVPEIFLDWTRPTSEMLLRRLAQLLNQVLNRVTAERNLFDRVVTLRLPGLESVDHYPILVAVTGILVQLLVRGPASEREQATSVLLADPCFQLRSICYLLGQPEPPAPGTALPAPDRKRFSLQSYADYISADELAQVEQMLAHLTSASAQAAAASLPTSEEDLCPICYAHPISAVFQPCGHKSCKACINQHLMNNKDCFFCKTTIVSVEDWEKGANTSTTSSAA

— publication PMC4104027
